Experimental data published in the supplement of paper PMC10849652.
Some of the results follow.

Sequences of proteins named here, by UniProt entry; tags and fusion partners are left off. A change or cut given only in a name is not applied to a line headed by its entry.
UniProt Q9UKL6: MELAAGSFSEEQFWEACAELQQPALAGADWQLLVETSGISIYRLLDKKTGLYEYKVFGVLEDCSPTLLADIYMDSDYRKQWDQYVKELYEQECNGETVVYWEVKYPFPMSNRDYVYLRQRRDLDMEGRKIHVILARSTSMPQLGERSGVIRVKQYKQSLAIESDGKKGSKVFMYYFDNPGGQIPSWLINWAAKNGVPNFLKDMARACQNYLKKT
UniProt Q99471, whole entry, looked up: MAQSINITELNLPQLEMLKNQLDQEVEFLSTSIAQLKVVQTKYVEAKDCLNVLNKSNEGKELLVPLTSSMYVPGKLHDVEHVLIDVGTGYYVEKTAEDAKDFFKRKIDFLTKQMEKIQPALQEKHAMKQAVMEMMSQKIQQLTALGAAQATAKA
UniProt P30086: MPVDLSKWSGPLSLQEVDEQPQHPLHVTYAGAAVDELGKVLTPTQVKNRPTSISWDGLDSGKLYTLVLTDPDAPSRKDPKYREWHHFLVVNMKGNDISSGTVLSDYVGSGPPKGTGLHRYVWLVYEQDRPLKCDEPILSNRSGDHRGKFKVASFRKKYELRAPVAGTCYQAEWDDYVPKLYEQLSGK
UniProt Q9NQP4, whole entry, looked up: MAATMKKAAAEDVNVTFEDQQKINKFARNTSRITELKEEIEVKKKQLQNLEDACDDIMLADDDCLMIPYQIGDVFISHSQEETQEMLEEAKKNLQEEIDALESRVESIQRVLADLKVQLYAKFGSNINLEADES
UniProt O60925, whole entry, looked up: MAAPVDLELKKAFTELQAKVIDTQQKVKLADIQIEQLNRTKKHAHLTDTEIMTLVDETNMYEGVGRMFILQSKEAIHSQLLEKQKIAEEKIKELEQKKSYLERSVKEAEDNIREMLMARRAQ
UniProt P56645: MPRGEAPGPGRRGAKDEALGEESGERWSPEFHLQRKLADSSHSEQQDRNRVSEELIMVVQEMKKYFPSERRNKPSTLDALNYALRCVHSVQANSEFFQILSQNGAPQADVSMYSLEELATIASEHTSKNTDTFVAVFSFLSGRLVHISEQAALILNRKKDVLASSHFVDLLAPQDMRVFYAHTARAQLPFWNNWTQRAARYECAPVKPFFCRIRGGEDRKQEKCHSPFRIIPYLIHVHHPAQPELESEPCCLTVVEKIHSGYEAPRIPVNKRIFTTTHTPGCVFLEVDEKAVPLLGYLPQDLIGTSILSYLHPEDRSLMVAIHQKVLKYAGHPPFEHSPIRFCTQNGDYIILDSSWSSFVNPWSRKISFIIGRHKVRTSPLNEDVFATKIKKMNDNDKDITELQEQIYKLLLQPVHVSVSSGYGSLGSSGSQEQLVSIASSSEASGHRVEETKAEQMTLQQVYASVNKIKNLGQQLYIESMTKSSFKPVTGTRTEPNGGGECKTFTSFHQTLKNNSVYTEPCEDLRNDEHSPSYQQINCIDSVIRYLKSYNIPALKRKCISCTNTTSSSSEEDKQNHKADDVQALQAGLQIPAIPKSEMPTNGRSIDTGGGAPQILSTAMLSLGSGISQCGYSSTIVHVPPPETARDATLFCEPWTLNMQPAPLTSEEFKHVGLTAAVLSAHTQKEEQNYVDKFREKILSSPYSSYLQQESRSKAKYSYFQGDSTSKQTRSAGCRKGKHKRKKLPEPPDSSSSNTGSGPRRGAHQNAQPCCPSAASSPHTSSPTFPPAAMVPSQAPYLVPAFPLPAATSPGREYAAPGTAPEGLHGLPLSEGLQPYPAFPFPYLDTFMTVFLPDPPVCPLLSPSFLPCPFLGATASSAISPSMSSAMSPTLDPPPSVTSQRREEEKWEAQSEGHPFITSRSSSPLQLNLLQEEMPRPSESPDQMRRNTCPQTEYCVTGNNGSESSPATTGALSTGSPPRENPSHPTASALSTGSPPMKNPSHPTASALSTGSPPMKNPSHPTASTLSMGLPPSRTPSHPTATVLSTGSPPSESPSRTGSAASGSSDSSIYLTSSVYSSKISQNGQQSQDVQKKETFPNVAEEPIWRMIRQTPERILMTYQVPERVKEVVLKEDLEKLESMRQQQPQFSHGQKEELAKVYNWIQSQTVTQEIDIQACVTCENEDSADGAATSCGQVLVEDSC
UniProt Q86TB9: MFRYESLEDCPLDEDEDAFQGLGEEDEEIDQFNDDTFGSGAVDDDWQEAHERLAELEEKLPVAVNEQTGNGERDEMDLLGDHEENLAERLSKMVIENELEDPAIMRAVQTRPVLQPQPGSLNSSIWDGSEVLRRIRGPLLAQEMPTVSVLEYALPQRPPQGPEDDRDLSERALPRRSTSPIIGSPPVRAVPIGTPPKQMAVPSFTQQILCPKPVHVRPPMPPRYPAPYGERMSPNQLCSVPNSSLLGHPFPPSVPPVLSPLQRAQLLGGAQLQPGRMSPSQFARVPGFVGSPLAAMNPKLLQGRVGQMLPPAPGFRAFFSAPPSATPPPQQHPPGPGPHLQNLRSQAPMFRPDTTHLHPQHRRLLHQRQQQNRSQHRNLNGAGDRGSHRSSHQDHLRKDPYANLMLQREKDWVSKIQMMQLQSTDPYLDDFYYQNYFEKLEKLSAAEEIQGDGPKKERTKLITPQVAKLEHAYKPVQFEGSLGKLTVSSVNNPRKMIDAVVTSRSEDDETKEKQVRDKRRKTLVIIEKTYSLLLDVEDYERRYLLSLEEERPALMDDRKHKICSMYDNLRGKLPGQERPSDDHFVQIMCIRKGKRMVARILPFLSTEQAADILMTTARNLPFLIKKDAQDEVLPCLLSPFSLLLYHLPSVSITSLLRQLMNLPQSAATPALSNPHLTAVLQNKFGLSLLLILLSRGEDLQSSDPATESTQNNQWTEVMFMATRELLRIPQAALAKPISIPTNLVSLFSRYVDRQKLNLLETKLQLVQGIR
UniProt P11498: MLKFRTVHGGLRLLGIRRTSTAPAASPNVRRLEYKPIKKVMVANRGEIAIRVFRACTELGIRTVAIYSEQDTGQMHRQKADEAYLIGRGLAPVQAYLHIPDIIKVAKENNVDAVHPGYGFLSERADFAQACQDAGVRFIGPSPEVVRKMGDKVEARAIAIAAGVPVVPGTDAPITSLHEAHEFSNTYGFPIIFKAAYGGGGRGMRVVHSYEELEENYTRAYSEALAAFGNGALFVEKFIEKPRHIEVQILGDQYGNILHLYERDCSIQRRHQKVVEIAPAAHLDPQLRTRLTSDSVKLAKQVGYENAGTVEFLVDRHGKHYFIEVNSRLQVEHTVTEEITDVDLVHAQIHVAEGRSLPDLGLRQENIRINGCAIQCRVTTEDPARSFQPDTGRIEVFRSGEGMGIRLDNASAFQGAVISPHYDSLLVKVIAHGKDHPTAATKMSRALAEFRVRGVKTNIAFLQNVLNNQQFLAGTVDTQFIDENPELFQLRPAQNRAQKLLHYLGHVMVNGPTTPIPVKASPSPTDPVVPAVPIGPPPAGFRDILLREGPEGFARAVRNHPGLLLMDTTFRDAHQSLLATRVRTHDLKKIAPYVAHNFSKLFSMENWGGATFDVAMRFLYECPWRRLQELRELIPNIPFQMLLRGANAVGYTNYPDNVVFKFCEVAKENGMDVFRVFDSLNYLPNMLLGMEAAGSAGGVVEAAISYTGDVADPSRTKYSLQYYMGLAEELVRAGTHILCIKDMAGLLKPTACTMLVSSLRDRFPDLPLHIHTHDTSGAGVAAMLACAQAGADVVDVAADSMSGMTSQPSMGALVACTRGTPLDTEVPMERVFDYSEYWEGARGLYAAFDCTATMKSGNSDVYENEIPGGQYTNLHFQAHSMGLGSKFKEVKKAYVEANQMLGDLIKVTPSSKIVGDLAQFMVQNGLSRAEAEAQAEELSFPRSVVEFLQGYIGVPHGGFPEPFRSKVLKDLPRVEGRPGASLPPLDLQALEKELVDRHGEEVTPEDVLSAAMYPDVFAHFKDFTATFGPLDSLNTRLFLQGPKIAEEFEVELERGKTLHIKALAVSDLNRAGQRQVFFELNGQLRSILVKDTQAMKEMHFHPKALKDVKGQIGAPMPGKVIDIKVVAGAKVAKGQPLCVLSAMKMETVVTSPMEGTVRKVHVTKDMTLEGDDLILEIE
UniProt Q9BVG4: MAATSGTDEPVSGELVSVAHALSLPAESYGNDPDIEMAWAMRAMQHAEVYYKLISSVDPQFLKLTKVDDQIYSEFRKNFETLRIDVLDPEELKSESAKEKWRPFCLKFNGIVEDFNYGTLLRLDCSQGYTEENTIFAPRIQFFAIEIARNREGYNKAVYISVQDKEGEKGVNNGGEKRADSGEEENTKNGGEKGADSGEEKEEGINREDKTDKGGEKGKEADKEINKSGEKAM
UniProt Q9NUG6, whole entry, looked up: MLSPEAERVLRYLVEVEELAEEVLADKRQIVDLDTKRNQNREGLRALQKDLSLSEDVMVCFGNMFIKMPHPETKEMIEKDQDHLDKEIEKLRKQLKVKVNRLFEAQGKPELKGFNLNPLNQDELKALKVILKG
UniProt P30039: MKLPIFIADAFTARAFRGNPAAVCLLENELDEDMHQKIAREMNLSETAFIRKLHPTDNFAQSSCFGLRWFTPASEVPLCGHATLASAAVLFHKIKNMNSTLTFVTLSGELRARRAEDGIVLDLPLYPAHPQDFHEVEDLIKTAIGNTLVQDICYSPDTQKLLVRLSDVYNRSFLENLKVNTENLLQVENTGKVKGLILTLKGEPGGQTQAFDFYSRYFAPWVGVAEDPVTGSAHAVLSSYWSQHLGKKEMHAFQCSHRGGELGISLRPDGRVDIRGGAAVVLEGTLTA
UniProt O94913, whole entry, looked up: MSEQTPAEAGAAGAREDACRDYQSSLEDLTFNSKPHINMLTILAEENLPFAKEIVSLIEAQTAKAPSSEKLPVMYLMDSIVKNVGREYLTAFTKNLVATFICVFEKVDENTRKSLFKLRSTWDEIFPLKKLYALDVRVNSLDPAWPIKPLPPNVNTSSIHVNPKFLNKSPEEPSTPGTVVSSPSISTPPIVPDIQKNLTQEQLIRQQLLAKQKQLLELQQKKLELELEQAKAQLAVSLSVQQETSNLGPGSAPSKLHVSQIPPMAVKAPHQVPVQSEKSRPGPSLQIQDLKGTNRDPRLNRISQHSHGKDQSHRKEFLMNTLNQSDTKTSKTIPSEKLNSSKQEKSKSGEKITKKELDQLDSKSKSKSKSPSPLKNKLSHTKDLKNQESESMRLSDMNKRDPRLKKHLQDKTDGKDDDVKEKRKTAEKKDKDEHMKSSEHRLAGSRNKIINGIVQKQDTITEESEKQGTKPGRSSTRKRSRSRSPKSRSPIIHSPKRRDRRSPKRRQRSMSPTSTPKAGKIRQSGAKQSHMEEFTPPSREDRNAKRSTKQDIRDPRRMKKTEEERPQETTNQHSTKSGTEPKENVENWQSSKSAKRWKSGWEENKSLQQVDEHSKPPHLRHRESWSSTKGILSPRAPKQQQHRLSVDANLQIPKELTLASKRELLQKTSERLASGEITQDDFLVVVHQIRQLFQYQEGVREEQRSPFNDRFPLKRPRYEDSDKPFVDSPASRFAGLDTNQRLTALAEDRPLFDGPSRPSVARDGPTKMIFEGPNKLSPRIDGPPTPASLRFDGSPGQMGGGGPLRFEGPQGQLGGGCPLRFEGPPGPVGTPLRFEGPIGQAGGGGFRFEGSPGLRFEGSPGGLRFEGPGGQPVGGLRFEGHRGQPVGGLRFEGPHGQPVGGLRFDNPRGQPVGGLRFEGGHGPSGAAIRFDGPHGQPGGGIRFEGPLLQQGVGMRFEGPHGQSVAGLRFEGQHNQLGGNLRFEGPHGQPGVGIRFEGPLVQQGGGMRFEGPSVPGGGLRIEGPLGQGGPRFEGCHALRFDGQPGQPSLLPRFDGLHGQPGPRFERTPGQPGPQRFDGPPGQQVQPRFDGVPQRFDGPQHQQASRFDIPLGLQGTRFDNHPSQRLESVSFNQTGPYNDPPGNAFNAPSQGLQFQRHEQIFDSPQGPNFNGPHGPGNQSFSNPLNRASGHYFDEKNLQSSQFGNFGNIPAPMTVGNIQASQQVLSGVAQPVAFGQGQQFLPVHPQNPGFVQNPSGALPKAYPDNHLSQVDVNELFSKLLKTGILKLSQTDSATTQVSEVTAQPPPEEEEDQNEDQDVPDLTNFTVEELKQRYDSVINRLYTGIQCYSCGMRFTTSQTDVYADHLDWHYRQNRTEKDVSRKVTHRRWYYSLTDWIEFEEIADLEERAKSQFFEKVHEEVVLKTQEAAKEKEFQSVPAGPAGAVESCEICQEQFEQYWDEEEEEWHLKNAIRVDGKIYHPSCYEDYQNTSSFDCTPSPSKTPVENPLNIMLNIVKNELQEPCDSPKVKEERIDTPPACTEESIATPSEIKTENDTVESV
UniProt P40855: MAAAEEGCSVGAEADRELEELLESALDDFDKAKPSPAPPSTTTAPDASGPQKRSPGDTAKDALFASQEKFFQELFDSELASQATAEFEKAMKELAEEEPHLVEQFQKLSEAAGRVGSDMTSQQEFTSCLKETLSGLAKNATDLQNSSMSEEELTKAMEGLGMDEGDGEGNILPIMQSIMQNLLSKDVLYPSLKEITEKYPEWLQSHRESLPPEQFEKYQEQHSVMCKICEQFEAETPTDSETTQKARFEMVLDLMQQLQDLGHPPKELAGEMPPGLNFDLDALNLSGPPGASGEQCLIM

Columns and labels:
Assay in all cases: log2 fold change, soluble protein after heating vs DMSO (PISA); higher = thermal stabilisation; K562 lysate, 10 uM; active = over 0.2 and 3.5 SD of the protein, either way, in both replicates (recomputed)
erlotinib = compound: C#Cc1cccc(Nc2ncnc3cc(OCCOC)c(OCCOC)cc23)c1 [erlotinib]
Procedure, shortened: (§1)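 K562 pellets were dounce-homogenised in PBS pH 7.4 with 1 mM MgCl2, and the crude extract at 1 mg/mL protein was treated with 10 μM compound for 30 min. Aliquots were heated for 3 min across 48°C-58°C, pooled, and brought to 0.5% NP-40 at 4°C; soluble protein was the supernatant after 21,000xg for 90 min. Soluble protein was quantified by TMTpro 16plex LC-MS/MS with channel sums equalised, and reported as log2 fold change in thermal stability against DMSO controls, with values from duplicates.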

[1] = compound: C/C(=N\NC(=O)C1=CC(=CC=C1)S(=O)(=O)N2CCOCC2)/C3=C(C=CC(=C3)Cl)O
Procedure, shortened: as §1

[2] = compound: C1=CC(=CC=C1C2=NC3=C(N2)C=C(C=C3)C(=O)N)OC4=CC=C(C=C4)Cl
Procedure, shortened: as §1

[3] = compound: C1=CC2=C(C=CC(=C2)/C=C\3/C(=O)NC(=NCC4=CC=CS4)S3)N=C1
Procedure, shortened: as §1

[4] = compound: C1=CC2=NC=CN=C2C=C1/C=C/3\C(=O)NC(=O)S3
Procedure, shortened: as §1

[5] = compound: C1=CC=C(C=C1)C2=NC(=C(N2)C3=CC=NC=C3)C4=CC(=C(C=C4)Cl)O
Procedure, shortened: as §1

[6] = compound: C1=CC=C2C(=C1)C3=NNC4=CC=CC(=C43)C2=O
Procedure, shortened: as §1

[7] = compound: C1CCN(C1)C(=O)NC2=CC=CC(=C2)NC3=NC=C(C(=N3)NCCC4=CN=CN4)Br
Procedure, shortened: as §1

[8] = compound: C1CN(CCC1(CC2=CC=C(C=C2)Cl)N)C3=NC=NC4=C3C=CN4
Procedure, shortened: as §1

IRAK-1-4 Inhibitor I = compound: C1COCCN1CCN2C3=CC=CC=C3N=C2NC(=O)C4=CC(=CC=C4)[N+](=O)[O-] [IRAK-1-4 Inhibitor I]
Procedure, shortened: as §1

ibrutinib = compound: C=CC(=O)N1CCC[C@@H](n2nc(-c3ccc(Oc4ccccc4)cc3)c3c(N)ncnc32)C1 [ibrutinib]
Procedure, shortened: as §1

[9] = compound: CC(=O)c1cnc2ccc(-c3cc(Cl)c(O)c(Cl)c3)nc2c1N[C@H]1CC[C@H](CN(C)C)CC1
Procedure, shortened: as §1

ralimetinib = compound: CC(C)(C)Cn1c(N)nc2ccc(-c3[nH]c(C(C)(C)C)nc3-c3ccc(F)cc3)nc21 [ralimetinib]
Procedure, shortened: as §1

[10] = compound: CC(C)(O)CC(=O)NCCn1ccc2ncnc(Nc3ccc(Oc4cccc(C(F)(F)F)c4)c(Cl)c3)c21
Procedure, shortened: as §1

[11] = compound: CC(C)C1=C2N=C(C=C(N2N=C1)NCC3=CC=CC=C3)NCCCCCCN
Procedure, shortened: as §1

[12] = compound: CC1=C(C(CC(=O)N1)C2=CC=C(C=C2)C(F)(F)F)C(=O)NC3=C(C=C4C(=C3)C=NN4)F
Procedure, shortened: as §1

[13] = compound: CC1=C(C2=C(C=C1)C(=O)C3=CC=CC=C3N2CCCN)C
Procedure, shortened: as §1

[14] = compound: CC1=C(C=C(C=C1)NC(=O)C2=CC(=CC=C2)C(C)(C)C#N)NC3=CC4=C(C=C3)N=CN(C4=O)C
Procedure, shortened: as §1

[15] = compound: CC1=C(C=C(C=C1)NC(=O)C2=CC(=CC=C2)N(C)C)NC(=O)C3=CC=C(C=C3)O
Procedure, shortened: as §1

[16] = compound: CC1=CC=C(C=C1)SC2=C3C=C(SC3=CN=C2)C(=O)N
Procedure, shortened: as §1

Measured: log2 fold change

PCBP2 (UniProt H3BRU6)
inactive: erlotinib 0.094 | [1] -0.272 | [2] 0.166 | [3] 0.061 | [4] -0.057 | [5] -0.034 | [6] -0.15 | [7] -0.196 | [8] -0.096 | IRAK-1-4 Inhibitor I 0.009 | ibrutinib 0.046 | [9] 0.016 | ralimetinib 0.031 | [10] -0.018 | [11] -0.036 | [12] -0.055 | [13] 0.001 | [14] 0.141 | [15] 0.039 | [16] -0.031

PCTP (UniProt Q9UKL6)
inactive: erlotinib 0.023 | [1] 0.057 | [2] 0.026 | [3] 0.06 | [4] 0 | [5] 0.008 | [6] -0.056 | [7] 0.002 | [8] -0.025 | IRAK-1-4 Inhibitor I 0.024 | ibrutinib 0.009 | [9] -0.009 | ralimetinib -0.014 | [10] -0.087 | [11] -0.04 | [12] 0.001 | [13] 0.048 | [14] 0.023 | [15] 0.021 | [16] -0.038

PFDN5 (UniProt Q99471)
inactive: erlotinib 0.039 | [1] 0.054 | [2] -0.035 | [3] 0.022 | [4] -0.033 | [5] 0.036 | [6] -0.024 | [7] 0.091 | [8] 0.173 | IRAK-1-4 Inhibitor I 0.007 | ibrutinib 0.137 | [9] -0.064 | ralimetinib -0.007 | [10] -0.006 | [11] -0.026 | [12] -0.056 | [13] -0.023 | [14] 0.116 | [15] 0.019 | [16] 0.05

PEBP1 (UniProt P30086)
inactive: erlotinib 0.003 | [1] -0.032 | [2] -0.003 | [3] 0.001 | [4] 0.013 | [5] 0.008 | [6] 0.029 | [7] 0.014 | [8] -0.009 | IRAK-1-4 Inhibitor I 0.007 | ibrutinib 0.063 | [9] 0.013 | ralimetinib -0.004 | [10] 0.006 | [11] 0.01 | [12] -0.006 | [13] 0.016 | [14] 0.024 | [15] -0.014 | [16] 0

PFDN4 (UniProt Q9NQP4)
inactive: erlotinib -0.037 | [1] -0.075 | [2] 0.004 | [3] -0.06 | [4] -0.022 | [5] 0.056 | [6] 0.081 | [7] -0.02 | [8] 0.082 | IRAK-1-4 Inhibitor I -0.01 | ibrutinib 0.091 | [9] 0.024 | ralimetinib -0.083 | [10] -0.037 | [11] 0.019 | [12] -0.015 | [13] 0.086 | [14] -0.045 | [15] 0.015 | [16] 0.015

PFDN1 (UniProt O60925)
inactive: erlotinib 0.041 | [1] 0.069 | [2] -0.078 | [3] 0.017 | [4] -0.033 | [5] 0.017 | [6] -0.021 | [7] 0.018 | [8] 0.066 | IRAK-1-4 Inhibitor I -0.042 | ibrutinib 0.063 | [9] -0.081 | ralimetinib -0.038 | [10] 0.031 | [11] -0.025 | [12] -0.075 | [13] 0.007 | [14] 0.051 | [15] -0.022 | [16] 0.073

PER3 isoform 2 (UniProt P56645)
inactive: erlotinib 0.014 | [1] 0.056 | [2] 0.001 | [3] 0.055 | [4] -0.043 | [5] 0.009 | [6] 0.038 | [7] 0.066 | [8] 0 | IRAK-1-4 Inhibitor I -0.01 | ibrutinib 0.041 | [9] 0.007 | ralimetinib -0.012 | [10] -0.021 | [11] 0.01 | [12] 0.016 | [13] 0.031 | [14] -0.002 | [15] 0.019 | [16] -0.017

PATL1 (UniProt Q86TB9)
inactive: erlotinib 0.02 | [1] 0.038 | [2] 0.056 | [3] 0.024 | [4] -0.057 | [5] -0.041 | [6] -0.039 | [7] -0.034 | [8] -0.029 | IRAK-1-4 Inhibitor I 0.035 | ibrutinib -0.01 | [9] 0.035 | ralimetinib -0.004 | [10] -0.098 | [11] -0.098 | [12] 0.007 | [13] 0.011 | [14] -0.03 | [15] -0.012 | [16] -0.04

PDHB (UniProt P11177)
inactive: erlotinib 0.032 | [1] 0.063 | [2] 0.027 | [3] -0.012 | [4] -0.002 | [5] -0.004 | [6] -0.009 | [7] -0.018 | [8] 0.011 | IRAK-1-4 Inhibitor I 0.007 | ibrutinib -0.018 | [9] 0.042 | ralimetinib -0.034 | [10] -0.033 | [11] 0.022 | [12] -0.019 | [13] -0.003 | [14] 0.036 | [15] 0.003 | [16] -0.005

PC (UniProt P11498)
inactive: erlotinib 0.018 | [1] 0.005 | [2] 0.005 | [3] 0.012 | [4] 0.027 | [5] -0.009 | [6] -0.032 | [7] 0.054 | [8] -0.011 | IRAK-1-4 Inhibitor I 0.012 | ibrutinib 0.006 | [9] 0.013 | ralimetinib 0.016 | [10] 0.001 | [11] 0 | [12] -0.022 | [13] -0.016 | [14] -0.035 | [15] 0.024 | [16] 0.027

PBDC1 (UniProt Q9BVG4)
inactive: erlotinib 0.014 | [1] -0.026 | [2] 0.011 | [3] -0.003 | [4] -0.006 | [5] -0.022 | [6] 0.029 | [7] -0.002 | [8] 0.009 | IRAK-1-4 Inhibitor I -0.012 | ibrutinib -0.044 | [9] -0.003 | ralimetinib -0.032 | [10] -0.025 | [11] 0.005 | [12] 0.043 | [13] 0.001 | [14] -0.01 | [15] -0.022 | [16] 0.005

PDRG1 (UniProt Q9NUG6)
inactive: erlotinib -0.028 | [1] 0.02 | [2] 0.066 | [3] -0.031 | [4] -0.037 | [5] 0.009 | [6] 0.042 | [7] -0.119 | [8] 0.093 | IRAK-1-4 Inhibitor I 0.03 | ibrutinib 0.038 | [9] -0.001 | ralimetinib -0.012 | [10] -0.032 | [11] 0.048 | [12] 0.036 | [13] -0.021 | [14] 0.052 | [15] -0.004 | [16] -0.024

PBLD (UniProt P30039)
inactive: erlotinib 0.022 | [1] -0.038 | [2] -0.001 | [3] -0.05 | [4] -0.131 | [5] 0.029 | [6] -0.128 | [7] -0.044 | [8] -0.025 | IRAK-1-4 Inhibitor I 0.217 | ibrutinib 0.085 | [9] 0.021 | ralimetinib -0.082 | [10] -0.093 | [11] -0.009 | [12] -0.038 | [13] 0.034 | [14] 0.07 | [15] -0.116 | [16] -0.007

Copied from the listing (two entries):
PCBP2 (UniProt H3BRU6)
inactive: erlotinib 0.094 | [1] -0.272 | [2] 0.166 | [3] 0.061 | [4] -0.057 | [5] -0.034 | [6] -0.15 | [7] -0.196 | [8] -0.096 | IRAK-1-4 Inhibitor I 0.009 | ibrutinib 0.046 | [9] 0.016 | ralimetinib 0.031 | [10] -0.018 | [11] -0.036 | [12] -0.055 | [13] 0.001 | [14] 0.141 | [15] 0.039 | [16] -0.031

PCTP (UniProt Q9UKL6)
inactive: erlotinib 0.023 | [1] 0.057 | [2] 0.026 | [3] 0.06 | [4] 0 | [5] 0.008 | [6] -0.056 | [7] 0.002 | [8] -0.025 | IRAK-1-4 Inhibitor I 0.024 | ibrutinib 0.009 | [9] -0.009 | ralimetinib -0.014 | [10] -0.087 | [11] -0.04 | [12] 0.001 | [13] 0.048 | [14] 0.023 | [15] 0.021 | [16] -0.038

(cont.)

PARP1 (UniProt P09874)
inactive: erlotinib 0.014 | [1] 0.034 | [2] 0.017 | [3] 0.011 | [4] 0.022 | [5] -0.003 | [6] 0.016 | [7] 0.013 | [8] 0.018 | IRAK-1-4 Inhibitor I -0.039 | ibrutinib 0.005 | [9] -0.005 | ralimetinib -0.028 | [10] 0.014 | [11] 0.019 | [12] -0.004 | [13] 0 | [14] -0.018 | [15] 0.02 | [16] 0.014

PCF11 (UniProt O94913)
inactive: erlotinib 0.031 | [1] -0.063 | [2] 0.014 | [3] 0.008 | [4] -0.044 | [5] -0.025 | [6] -0.028 | [7] 0.005 | [8] 0.005 | IRAK-1-4 Inhibitor I -0.017 | ibrutinib -0.027 | [9] -0.006 | ralimetinib -0.005 | [10] -0.02 | [11] 0.022 | [12] 0.03 | [13] -0.02 | [14] -0.021 | [15] 0.045 | [16] -0.02

PEX19 (UniProt P40855)
inactive: erlotinib -0.001 | [1] -0.06 | [2] 0.042 | [3] 0.021 | [4] -0.033 | [5] -0.007 | [6] -0.019 | [7] -0.013 | [8] 0.059 | IRAK-1-4 Inhibitor I 0.024 | ibrutinib 0.182 | [9] -0.013 | ralimetinib -0.02 | [10] -0.037 | [11] 0.002 | [12] -0.033 | [13] -0.003 | [14] 0.052 | [15] -0.008 | [16] -0.022
